In test [1] the target is T1, RUN and FYVE domain-containing protein 4 (RUFY4), full length, expressed in HEK293T cells (mouse) (UniProt Q3TYX8).
T1 sequence: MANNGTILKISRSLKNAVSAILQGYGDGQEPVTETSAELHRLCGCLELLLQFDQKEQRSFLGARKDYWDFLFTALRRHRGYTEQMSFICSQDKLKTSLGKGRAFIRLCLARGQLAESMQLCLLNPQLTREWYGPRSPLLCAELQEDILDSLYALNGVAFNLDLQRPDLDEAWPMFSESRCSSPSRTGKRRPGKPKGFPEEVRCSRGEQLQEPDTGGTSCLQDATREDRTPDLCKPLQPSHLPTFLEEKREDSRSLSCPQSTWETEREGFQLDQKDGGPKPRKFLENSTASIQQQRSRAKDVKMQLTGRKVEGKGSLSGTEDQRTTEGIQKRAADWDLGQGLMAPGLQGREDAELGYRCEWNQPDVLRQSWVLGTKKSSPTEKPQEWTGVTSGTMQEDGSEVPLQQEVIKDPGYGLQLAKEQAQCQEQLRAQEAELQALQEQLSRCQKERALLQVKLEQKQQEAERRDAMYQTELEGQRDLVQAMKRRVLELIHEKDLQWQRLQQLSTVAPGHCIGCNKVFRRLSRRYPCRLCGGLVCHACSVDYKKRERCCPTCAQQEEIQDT
Nature of the test: co-IP; HEK293T cells transfected to co-express the indicated proteins; lysed in RIPA buffer; lysates incubated with primary antibodies overnight, then protein A-agarose 1 h at 4 °C; immunoblot.

Sequences of proteins named here, by UniProt entry; tags and fusion partners are left off.
UniProt P51150: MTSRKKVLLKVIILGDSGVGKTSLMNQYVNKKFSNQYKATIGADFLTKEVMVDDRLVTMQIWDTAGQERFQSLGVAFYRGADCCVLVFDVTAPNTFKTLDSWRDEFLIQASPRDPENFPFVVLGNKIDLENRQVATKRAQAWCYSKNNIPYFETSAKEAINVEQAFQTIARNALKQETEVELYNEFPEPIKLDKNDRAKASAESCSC

Test [2] concerns the target T2, Flag-RUFY4, transduced into mature osteoclasts (mouse) (UniProt Q3TYX8).
T2 sequence: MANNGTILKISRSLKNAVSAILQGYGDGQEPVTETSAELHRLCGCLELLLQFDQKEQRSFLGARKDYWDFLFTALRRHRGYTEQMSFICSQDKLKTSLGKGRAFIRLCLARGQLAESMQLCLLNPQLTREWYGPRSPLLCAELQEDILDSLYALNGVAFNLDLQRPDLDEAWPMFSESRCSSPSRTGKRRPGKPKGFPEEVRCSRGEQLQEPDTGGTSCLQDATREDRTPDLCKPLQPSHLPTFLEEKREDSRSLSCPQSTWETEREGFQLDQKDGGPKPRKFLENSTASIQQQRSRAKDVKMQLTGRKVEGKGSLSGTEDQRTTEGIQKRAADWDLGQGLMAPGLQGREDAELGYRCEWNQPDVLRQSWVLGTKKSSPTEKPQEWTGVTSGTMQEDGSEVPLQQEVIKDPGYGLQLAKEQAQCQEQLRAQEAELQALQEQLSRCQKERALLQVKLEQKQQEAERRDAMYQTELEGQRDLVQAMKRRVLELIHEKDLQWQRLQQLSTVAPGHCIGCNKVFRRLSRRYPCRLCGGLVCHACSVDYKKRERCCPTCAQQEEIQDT
Put plainly: co-IP; mature wild-type mouse osteoclasts transduced with Flag-RUFY4; endogenous Rab7 and LAMP2 detected; RIPA lysate; immunoblot.

Test [3] addresses T1, RUN and FYVE domain-containing protein 4 (RUFY4), full length, expressed in HEK293T cells (mouse). Nature of the test: co-IP; HEK293T cells transfected to co-express the indicated proteins; lysed in RIPA buffer; lysates incubated with primary antibodies overnight, then protein A-agarose 1 h at 4 °C; immunoblot. The source holds these as a separate data set.

Like-named read-outs stand apart in the source and are kept apart here. Results are given in words; binding and its absence hold for the method and conditions named. Binding seen in cells or lysates may run through a third protein. Some entries that bind do so weakly or less than the wild type. For some assays here: Tags and fused reporters may be left off the sequences shown.

Binding data for five molecules are collected here from article PMC11094054.

As to “CFP-Rab7, expressed in HEK293T cells (from UniProt P51150 1-207)”, in test [1], the binding result is given as “binds”.

For the molecule “Rab7, endogenous in mouse osteoclasts (from UniProt P51150 1-207)”, the binding result in test [2] was “binds”.

B1: RUN and FYVE domain-containing protein 4 (RUFY4), full length, expressed in HEK293T cells (protein, UniProt Q3TYX8-1 1-563)
chain: MANNGTILKISRSLKNAVSAILQGYGDGQEPVTETSAELHRLCGCLELLLQFDQKEQRSFLGARKDYWDFLFTALRRHRGYTEQMSFICSQDKLKTSLGKGRAFIRLCLARGQLAESMQLCLLNPQLTREWYGPRSPLLCAELQEDILDSLYALNGVAFNLDLQRPDLDEAWPMFSESRCSSPSRTGKRRPGKPKGFPEEVRCSRGEQLQEPDTGGTSCLQDATREDRTPDLCKPLQPSHLPTFLEEKREDSRSLSCPQSTWETEREGFQLDQKDGGPKPRKFLENSTASIQQQRSRAKDVKMQLTGRKVEGKGSLSGTEDQRTTEGIQKRAADWDLGQGLMAPGLQGREDAELGYRCEWNQPDVLRQSWVLGTKKSSPTEKPQEWTGVTSGTMQEDGSEVPLQQEVIKDPGYGLQLAKEQAQCQEQLRAQEAELQALQEQLSRCQKERALLQVKLEQKQQEAERRDAMYQTELEGQRDLVQAMKRRVLELIHEKDLQWQRLQQLSTVAPGHCIGCNKVFRRLSRRYPCRLCGGLVCHACSVDYKKRERCCPTCAQQEEIQDT
For B1, the binding entry in test [3] was “binds”.

B2: LAMP2, expressed in HEK293T cells (protein, UniProt P17047 26-415)
chain: LIVNLTDSKGTCLYAEWEMNFTITYETTNQTNKTITIAVPDKATHDGSSCGDDRNSAKIMIQFGFAVSWAVNFTKEASHYSIHDIVLSYNTSDSTVFPGAVAKGVHTVKNPENFKVPLDVIFKCNSVLTYNLTPVVQKYWGIHLQAFVQNGTVSKNEQVCEEDQTPTTVAPIIHTTAPSTTTTLTPTSTPTPTPTPTPTVGNYSIRNGNTTCLLATMGLQLNITEEKVPFIFNINPATTNFTGSCQPQSAQLRLNNSQIKYLDFIFAVKNEKRFYLKEVNVYMYLANGSAFNISNKNLSFWDAPLGSSYMCNKEQVLSVSRAFQINTFNLKVQPFNVTKGQYSTAQDCSADEDNFLVPIAVGAALGGVLILVLLAYFIGLKRHHTGYEQF
For B2, the binding result in test [3] is recorded as “binds”.

B3: LAMP2, endogenous in mouse osteoclasts (protein, UniProt P17047 26-415)
chain: LIVNLTDSKGTCLYAEWEMNFTITYETTNQTNKTITIAVPDKATHDGSSCGDDRNSAKIMIQFGFAVSWAVNFTKEASHYSIHDIVLSYNTSDSTVFPGAVAKGVHTVKNPENFKVPLDVIFKCNSVLTYNLTPVVQKYWGIHLQAFVQNGTVSKNEQVCEEDQTPTTVAPIIHTTAPSTTTTLTPTSTPTPTPTPTPTVGNYSIRNGNTTCLLATMGLQLNITEEKVPFIFNINPATTNFTGSCQPQSAQLRLNNSQIKYLDFIFAVKNEKRFYLKEVNVYMYLANGSAFNISNKNLSFWDAPLGSSYMCNKEQVLSVSRAFQINTFNLKVQPFNVTKGQYSTAQDCSADEDNFLVPIAVGAALGGVLILVLLAYFIGLKRHHTGYEQF
B3: the binding entry in test [2] was “binds”.
